Data set [1] has as its target E-cadherin extracellular domain-Fc chimera (Homo sapiens) (UniProt P12830). Nature of the data set: SPR. Particulars: immobilised on SPR chip; Kd analysed from bio-dT44-subtracted sensorgrams but value not given; DPBST pH 7.4, 0.05% Tween 20; purified recombinant protein; protein details: IgG Fc fusion, R&D Systems 648-EC-100; single-stranded DNA.
In another data set the test system is IgG-Fc. Put plainly: SPR. Conditions: immobilised on SPR chip; IgG-Fc control, no response change; DPBST pH 7.4; purified recombinant protein; protein details: control Fc; single-stranded DNA.
Data set [2] addresses E-cadherin (on A549 cells) (UniProt P12830). Nature of the data set: activity in cells. Conditions: biotin, protein on the cell surface, single-stranded DNA.

The chains behind the UniProt entries cited, without tags or fusion partners. Residues count along the entry.
UniProt P12830, 155-707, stated change not applied: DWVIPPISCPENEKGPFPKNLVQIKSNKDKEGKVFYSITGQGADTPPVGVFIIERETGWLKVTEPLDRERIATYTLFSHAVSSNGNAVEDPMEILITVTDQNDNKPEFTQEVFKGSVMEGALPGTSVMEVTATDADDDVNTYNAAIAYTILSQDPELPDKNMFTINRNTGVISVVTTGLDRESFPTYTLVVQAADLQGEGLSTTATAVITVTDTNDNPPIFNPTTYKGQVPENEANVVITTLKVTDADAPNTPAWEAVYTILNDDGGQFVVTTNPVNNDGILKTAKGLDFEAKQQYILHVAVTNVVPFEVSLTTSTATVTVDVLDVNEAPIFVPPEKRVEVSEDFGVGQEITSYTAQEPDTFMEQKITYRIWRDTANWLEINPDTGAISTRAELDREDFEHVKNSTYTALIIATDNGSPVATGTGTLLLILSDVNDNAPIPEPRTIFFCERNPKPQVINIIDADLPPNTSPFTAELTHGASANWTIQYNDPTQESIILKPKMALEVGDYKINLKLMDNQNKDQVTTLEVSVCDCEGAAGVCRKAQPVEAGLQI
UniProt P12830, 155-882: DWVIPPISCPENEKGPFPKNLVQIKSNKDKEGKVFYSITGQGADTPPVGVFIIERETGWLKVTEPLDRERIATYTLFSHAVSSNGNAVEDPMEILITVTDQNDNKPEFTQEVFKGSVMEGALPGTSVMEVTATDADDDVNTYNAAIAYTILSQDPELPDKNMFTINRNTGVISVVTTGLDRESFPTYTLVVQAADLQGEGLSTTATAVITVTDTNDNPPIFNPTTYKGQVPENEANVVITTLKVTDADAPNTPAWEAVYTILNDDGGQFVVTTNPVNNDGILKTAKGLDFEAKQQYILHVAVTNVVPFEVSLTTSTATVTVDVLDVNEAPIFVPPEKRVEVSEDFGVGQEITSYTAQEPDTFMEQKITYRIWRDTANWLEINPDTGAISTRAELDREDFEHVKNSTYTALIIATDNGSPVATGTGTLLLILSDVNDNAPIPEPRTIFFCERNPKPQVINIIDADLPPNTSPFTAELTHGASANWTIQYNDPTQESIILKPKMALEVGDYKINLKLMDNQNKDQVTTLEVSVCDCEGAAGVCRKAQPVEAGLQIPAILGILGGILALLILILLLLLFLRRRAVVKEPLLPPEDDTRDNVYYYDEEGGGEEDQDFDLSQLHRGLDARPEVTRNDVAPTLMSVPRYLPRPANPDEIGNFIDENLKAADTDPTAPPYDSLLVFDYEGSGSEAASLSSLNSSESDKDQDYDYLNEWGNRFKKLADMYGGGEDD

For some of these results: Negatives hold for the conditions tested. For some of these results: The exact form of at least one protein or probe is not confirmed.

Consider “GGGGTGGTGGGGGATACTGTGGGGGTGGTGGGCT [EBA (E-cadherin binding aptamer)]”, for which the binding result in data set [1] was “binds”; in the data set on IgG-Fc, “no binding”.

For “TTTTTTTTTTGGGGTGGTGGGGGATACTGTGGGGGTGGTGGGCT [Bio-T10-EBA]”, the “functional effect of the aptamer” value in data set [2] (T10 linker, A549 cells stay adhered to aptamer-coated plate after 1 mM EDTA wash, whole-cell adhesion, E-cadherin not isolated, variant of EBA (E-cadherin binding aptamer)) is “active”.

For the sequence “TTTTTTTTTTTTTTTTTTTTTTTTTTTTTTTTTTTTTTTTTTTT [Bio-T44 (bio-dT44)]”, the “functional effect of the aptamer” value in data set [2] (A549 cells detached from Bio-T44-coated plate by 1 mM EDTA wash) is on record as “not active”.

Values taken from patent US20190225942.
